PubChem BioAssay AID1259254 – NCATS, 2017

- Purpose: 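Genome-wide screen for genes that prevent DNA re-replication in cancer cells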 (primary screen)
- Cells: human HCT116 colorectal cancer cells
- Reagents: single siRNA against human genes
- Time to read-out: 3 days
- Measured: 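Nuclei stained with Hoechst and imaged; cell-cycle phase assigned by DNA content; G2 share scaled per plate, non-targeting siRNA 0%, GMNN siRNA 100%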
- Scale: G2 robust z-score and G2 cells, % of GMNN control: higher = more G2 cells, more excess DNA replication; raw share of cells in G2: higher = larger share of cells with G2 DNA content
- Active means: 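Active siRNAs have a G2 robust z of 5 or more median absolute deviations over the median, which in these data means about 38% or higher of GMNN control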
This is a random part of about 59,000 deposited reagents. About 1,550 of all reagents (2.6%) count as active. 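G2 share is only a proxy for re-replication; each gene was hit by three separate siRNAs, and active genes were retested.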 The raw values are shown without normalisation. Unmarked entries are inactive. The numbers tell different reagents against one gene apart. Not stated in the record: the amount of reagent.

| gene knocked down | reagent | G2 robust z-score | G2 cells, % of GMNN control | raw share of cells in G2 (%) |
| --- | --- | --- | --- | --- |
| KLRG1 | 1 | -0.457 | -0.246 | 5.59 |
| KLRG1 | 2 | -0.502 | -0.565 | 3.66 |
| KLRG1 | 3 | -1.85 | -10 | 2.52 |
| PMS2P10 | 1 | 1.43 | 13 | 8.76 |
| PMS2P10 | 2 | 6.3 (active) | 47.3 | 23 |
| PMS2P10 | 3 | -0.494 | -0.511 | 3.31 |
| WDR1 | 1 | 6.2 (active) | 46.6 | 19.1 |
| WDR1 | 2 | 0.266 | 4.84 | 7.03 |
| WDR1 | 3 | 4.24 | 32.8 | 18.1 |
| KLHDC8B | 1 | -0.798 | -2.65 | 1.92 |
| KLHDC8B | 2 | 0.816 | 8.71 | 6.72 |
| KLHDC8B | 3 | 1.02 | 10.1 | 6.35 |
| RFC1 | 1 | 2.98 | 23.9 | 13.2 |
| RFC1 | 2 | -0.142 | 1.97 | 4.8 |
| RFC1 | 3 | -0.495 | -0.516 | 4.48 |
| SLC25A14 | 1 | -0.792 | -2.6 | 3.77 |
| SLC25A14 | 2 | 1.55 | 13.8 | 10.1 |
| SLC25A14 | 3 | 0.194 | 4.33 | 6.5 |
| ISOC2 | 1 | -0.411 | 0.0762 | 4.22 |
| ISOC2 | 2 | 2.48 | 20.4 | 13.9 |
| ISOC2 | 3 | 1.34 | 12.4 | 9.39 |
| HSF2BP | 1 | 1.26 | 11.8 | 9.62 |
| HSF2BP | 2 | 0.0178 | 3.09 | 5.41 |
| HSF2BP | 3 | -0.584 | -1.14 | 2.75 |
| B3GALT1 | 1 | 2.67 | 21.7 | 12.5 |
| B3GALT1 | 2 | -0.98 | -3.93 | 3.88 |
| B3GALT1 | 3 | -0.565 | -1.01 | 4.08 |
| SLC24A1 | 1 | 1.17 | 11.2 | 8.72 |
| SLC24A1 | 2 | -1.06 | -4.46 | 3.7 |
| SLC24A1 | 3 | 0.757 | 8.29 | 8.3 |
| IGLON5 | 1 | -0.492 | -0.492 | 3.63 |
| IGLON5 | 2 | -0.829 | -2.87 | 2.38 |
| IGLON5 | 3 | 0.113 | 3.76 | 6.35 |
| ANAPC10 | 1 | 3.23 | 25.7 | 16.6 |
| ANAPC10 | 2 | -0.303 | 0.834 | 6.06 |
| ANAPC10 | 3 | -0.494 | -0.508 | 3.68 |
| KLHL10 | 1 | 3.95 | 30.7 | 19.2 |
| KLHL10 | 2 | 0.201 | 4.38 | 6.67 |
| KLHL10 | 3 | -0.34 | 0.572 | 4.49 |
| DDX4 | 1 | -0.385 | 0.26 | 4.34 |
| DDX4 | 2 | -0.551 | -0.908 | 3.45 |
| DDX4 | 3 | 0.595 | 7.15 | 9.2 |
| TMEM250 | 1 | 1.28 | 11.9 | 6.71 |
| TMEM250 | 2 | -0.142 | 1.97 | 4.92 |
| TMEM250 | 3 | -1.14 | -5.02 | 1.43 |
| GPCPD1 | 1 | 0.814 | 8.69 | 5.78 |
| GPCPD1 | 2 | -0.539 | -0.825 | 4.02 |
| GPCPD1 | 3 | 5.49 (active) | 41.6 | 24.3 |
| NBPF22P | 1 | 1.06 | 10.4 | 7.07 |
| NBPF22P | 2 | 1.4 | 12.8 | 7.17 |
| NBPF22P | 3 | -1.02 | -4.19 | 2.11 |
| OSTCP3 | 1 | -0.344 | 0.551 | 3.52 |
| OSTCP3 | 2 | -0.766 | -2.42 | 2.01 |
| OSTCP3 | 3 | -0.74 | -2.24 | 3.42 |
| TMC8 | 1 | -0.169 | 1.78 | 3.69 |
| TMC8 | 2 | -0.827 | -2.85 | 2.87 |
| TMC8 | 3 | 0.186 | 4.27 | 4.23 |
| KRT18P8 | 1 | -0.612 | -1.34 | 1.43 |
| KRT18P8 | 2 | -0.176 | 1.73 | 4.78 |
| KRT18P8 | 3 | 5.02 (active) | 38.3 | 14.7 |
| ZNF514 | 1 | -0.799 | -2.65 | 2.8 |
| ZNF514 | 2 | 5.88 (active) | 44.3 | 18.4 |
| ZNF514 | 3 | -0.105 | 2.23 | 6.91 |
| NCAM2 | 1 | -1.08 | -4.67 | 1.66 |
| NCAM2 | 2 | 1.08 | 10.5 | 9.44 |
| NCAM2 | 3 | -1.13 | -4.98 | 3.5 |
| PALM3 | 1 | 4.44 | 34.2 | 15.7 |
| PALM3 | 2 | 2.34 | 19.4 | 11.8 |
| PALM3 | 3 | 1.81 | 15.7 | 10.5 |

Reagents listed above marked active (5):
| gene knocked down | reagent | G2 robust z-score | G2 cells, % of GMNN control | raw share of cells in G2 (%) |
| --- | --- | --- | --- | --- |
| PMS2P10 | 2 | 6.3 (active) | 47.3 | 23 |
| WDR1 | 1 | 6.2 (active) | 46.6 | 19.1 |
| GPCPD1 | 3 | 5.49 (active) | 41.6 | 24.3 |
| KRT18P8 | 3 | 5.02 (active) | 38.3 | 14.7 |
| ZNF514 | 2 | 5.88 (active) | 44.3 | 18.4 |
